Experimental data published in paper PMC11172389.
These are yes or no findings as the source states them, for the method shown. In cells and extracts the contact can be indirect. Here binding means that the protein was enriched with, or labelled near, the bait; the list need not be complete.

Chains of the proteins cited; added tags and fusions are not shown.
UniProt P58391: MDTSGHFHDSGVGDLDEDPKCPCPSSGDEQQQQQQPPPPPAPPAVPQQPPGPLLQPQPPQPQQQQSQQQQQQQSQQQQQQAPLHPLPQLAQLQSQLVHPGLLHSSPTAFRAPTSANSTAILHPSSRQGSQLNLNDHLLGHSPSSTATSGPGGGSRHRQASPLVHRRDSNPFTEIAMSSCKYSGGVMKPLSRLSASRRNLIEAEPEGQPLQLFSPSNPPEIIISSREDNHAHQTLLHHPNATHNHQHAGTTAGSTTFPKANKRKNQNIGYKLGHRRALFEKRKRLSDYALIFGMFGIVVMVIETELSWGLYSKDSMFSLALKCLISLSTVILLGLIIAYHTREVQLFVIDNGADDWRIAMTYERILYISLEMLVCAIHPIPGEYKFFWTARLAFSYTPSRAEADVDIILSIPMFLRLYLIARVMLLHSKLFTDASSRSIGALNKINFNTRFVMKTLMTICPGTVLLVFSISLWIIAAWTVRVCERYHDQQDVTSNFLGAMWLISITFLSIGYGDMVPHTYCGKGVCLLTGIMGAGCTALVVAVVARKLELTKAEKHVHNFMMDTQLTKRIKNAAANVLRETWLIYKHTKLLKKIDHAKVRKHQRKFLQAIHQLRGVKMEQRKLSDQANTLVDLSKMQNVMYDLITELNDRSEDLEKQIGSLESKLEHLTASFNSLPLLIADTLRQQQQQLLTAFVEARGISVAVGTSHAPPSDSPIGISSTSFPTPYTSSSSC
UniProt Q61290: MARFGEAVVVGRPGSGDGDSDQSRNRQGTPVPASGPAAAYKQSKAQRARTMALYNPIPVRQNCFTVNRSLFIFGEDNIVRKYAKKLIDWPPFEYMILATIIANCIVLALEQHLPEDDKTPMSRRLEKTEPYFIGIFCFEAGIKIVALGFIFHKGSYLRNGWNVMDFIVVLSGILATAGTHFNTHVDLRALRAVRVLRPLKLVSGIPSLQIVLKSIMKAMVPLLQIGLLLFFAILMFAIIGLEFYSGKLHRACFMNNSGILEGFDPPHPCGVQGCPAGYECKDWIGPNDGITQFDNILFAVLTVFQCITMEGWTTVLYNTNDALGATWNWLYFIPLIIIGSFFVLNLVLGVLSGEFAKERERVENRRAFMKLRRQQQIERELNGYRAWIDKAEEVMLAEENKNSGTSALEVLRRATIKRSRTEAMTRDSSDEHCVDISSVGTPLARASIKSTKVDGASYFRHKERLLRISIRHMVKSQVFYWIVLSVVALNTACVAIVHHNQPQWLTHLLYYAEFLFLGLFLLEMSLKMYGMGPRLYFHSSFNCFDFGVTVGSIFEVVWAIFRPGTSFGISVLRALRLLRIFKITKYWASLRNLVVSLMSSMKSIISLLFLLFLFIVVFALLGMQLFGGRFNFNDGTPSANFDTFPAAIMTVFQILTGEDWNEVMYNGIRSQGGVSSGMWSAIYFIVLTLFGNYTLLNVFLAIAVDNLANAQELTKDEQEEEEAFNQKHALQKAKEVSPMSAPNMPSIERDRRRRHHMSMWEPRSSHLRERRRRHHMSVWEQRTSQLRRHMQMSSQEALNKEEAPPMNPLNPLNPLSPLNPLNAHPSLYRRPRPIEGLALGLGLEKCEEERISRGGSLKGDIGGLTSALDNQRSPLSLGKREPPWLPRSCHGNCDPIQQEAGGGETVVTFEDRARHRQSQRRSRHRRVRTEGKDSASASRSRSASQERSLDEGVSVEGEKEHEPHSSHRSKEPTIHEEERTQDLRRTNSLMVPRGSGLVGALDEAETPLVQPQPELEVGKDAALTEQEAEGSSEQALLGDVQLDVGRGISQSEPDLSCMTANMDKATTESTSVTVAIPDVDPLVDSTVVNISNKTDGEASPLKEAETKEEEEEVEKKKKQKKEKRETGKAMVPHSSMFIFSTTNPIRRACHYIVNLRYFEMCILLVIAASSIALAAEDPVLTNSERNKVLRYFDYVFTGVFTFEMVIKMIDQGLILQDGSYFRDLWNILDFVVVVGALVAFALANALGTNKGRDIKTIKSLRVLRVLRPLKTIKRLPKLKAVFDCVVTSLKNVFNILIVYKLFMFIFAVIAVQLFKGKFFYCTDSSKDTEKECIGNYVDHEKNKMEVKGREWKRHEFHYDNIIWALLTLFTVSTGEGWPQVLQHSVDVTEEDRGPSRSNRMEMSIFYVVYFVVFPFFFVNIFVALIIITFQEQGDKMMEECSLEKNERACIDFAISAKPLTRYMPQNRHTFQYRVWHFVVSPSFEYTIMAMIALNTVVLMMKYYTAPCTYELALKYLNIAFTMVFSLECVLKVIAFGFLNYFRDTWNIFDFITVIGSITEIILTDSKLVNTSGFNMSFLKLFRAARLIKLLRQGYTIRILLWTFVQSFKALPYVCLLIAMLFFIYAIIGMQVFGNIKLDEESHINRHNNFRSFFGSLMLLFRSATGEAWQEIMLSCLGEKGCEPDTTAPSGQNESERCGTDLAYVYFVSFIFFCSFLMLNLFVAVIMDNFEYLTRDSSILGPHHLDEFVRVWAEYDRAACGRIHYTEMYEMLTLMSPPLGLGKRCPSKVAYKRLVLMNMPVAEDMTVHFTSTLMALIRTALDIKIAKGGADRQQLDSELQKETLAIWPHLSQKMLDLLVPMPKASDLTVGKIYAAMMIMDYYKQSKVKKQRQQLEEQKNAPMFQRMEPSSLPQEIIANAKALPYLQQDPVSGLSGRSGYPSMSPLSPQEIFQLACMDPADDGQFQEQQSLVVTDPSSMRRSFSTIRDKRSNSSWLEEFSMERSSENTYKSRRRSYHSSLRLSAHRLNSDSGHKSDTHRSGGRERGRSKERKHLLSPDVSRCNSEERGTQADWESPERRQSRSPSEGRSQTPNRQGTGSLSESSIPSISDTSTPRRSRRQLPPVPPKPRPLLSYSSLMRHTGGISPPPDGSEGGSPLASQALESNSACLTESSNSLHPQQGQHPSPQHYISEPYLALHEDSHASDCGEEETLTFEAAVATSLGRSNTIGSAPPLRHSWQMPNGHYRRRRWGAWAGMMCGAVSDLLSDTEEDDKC
UniProt Q61037: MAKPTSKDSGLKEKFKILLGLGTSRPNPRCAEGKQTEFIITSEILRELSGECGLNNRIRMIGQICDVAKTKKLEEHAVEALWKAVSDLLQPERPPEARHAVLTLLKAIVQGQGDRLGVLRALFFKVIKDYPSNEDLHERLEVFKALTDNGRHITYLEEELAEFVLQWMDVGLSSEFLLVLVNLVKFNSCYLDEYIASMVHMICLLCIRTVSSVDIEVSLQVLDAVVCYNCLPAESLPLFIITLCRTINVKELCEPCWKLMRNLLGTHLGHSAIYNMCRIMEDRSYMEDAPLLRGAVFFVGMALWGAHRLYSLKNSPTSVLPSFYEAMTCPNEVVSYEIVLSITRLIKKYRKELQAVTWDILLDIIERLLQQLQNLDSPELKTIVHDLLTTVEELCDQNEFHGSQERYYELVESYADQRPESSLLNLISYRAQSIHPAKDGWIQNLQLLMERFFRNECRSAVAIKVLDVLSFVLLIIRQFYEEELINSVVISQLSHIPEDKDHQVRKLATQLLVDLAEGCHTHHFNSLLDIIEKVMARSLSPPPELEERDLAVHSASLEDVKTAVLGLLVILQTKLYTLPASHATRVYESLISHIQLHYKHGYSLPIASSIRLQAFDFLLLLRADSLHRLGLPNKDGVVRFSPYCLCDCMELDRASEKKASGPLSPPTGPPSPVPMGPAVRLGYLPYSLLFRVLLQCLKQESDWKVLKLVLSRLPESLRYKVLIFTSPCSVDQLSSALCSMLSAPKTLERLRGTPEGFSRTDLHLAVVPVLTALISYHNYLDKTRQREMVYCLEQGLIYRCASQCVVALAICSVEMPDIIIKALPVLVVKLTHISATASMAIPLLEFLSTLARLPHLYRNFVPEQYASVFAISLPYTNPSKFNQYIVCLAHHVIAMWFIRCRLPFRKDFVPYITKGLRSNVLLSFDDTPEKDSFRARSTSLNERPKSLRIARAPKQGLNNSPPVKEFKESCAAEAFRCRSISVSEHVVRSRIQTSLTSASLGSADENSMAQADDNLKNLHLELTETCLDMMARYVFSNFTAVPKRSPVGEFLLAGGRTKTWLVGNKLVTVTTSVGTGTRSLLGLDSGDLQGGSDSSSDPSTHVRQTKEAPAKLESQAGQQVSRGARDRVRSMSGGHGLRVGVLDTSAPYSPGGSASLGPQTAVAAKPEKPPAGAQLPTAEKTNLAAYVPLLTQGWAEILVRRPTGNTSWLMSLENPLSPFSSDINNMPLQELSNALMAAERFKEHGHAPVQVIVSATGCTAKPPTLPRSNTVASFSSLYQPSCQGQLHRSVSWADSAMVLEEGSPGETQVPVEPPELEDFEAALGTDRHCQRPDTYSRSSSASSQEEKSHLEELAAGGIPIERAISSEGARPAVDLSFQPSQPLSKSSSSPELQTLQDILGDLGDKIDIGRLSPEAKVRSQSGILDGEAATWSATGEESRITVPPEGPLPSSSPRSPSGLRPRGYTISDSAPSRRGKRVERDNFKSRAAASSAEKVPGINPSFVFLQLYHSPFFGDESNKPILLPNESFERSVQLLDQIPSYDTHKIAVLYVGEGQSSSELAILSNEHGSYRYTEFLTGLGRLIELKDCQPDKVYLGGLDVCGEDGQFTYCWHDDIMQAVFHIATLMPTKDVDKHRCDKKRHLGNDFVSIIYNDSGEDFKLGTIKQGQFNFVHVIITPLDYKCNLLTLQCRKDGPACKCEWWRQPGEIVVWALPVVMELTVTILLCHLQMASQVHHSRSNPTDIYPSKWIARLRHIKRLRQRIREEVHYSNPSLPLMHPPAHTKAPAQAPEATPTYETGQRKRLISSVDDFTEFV

B1: sclerosis tuberous complex protein Tsc1 (protein, UniProt Q9EP53 1-1161)
chain: MAQLANIGELLSMLDSSTLGVRDDVTAIFKESLNSERGPMLVNTLVDYYLETNSQPVLHILTTLQEPHDKHLLDKINEYVGKAATRLSILSLLGHVVRLQPSWKHKLSQAPLLPSLLKCLKMDTDVVVLTTGVLVLITMLPMIPQSGKQHLLDFFDIFGRLSSWCLKKPGHVTEVYLVHLHASVYALFHRLYGMYPCNFVSFLRSHYSMKENVETFEEVVKPMMEHVRIHPELVTGSKDHELDPRRWKTLETHDVVIECAKISLDPTEASYEDGYSVSHQLSACFPYRSADVTTSPYVDTQNSYGGSTSTPSSSSRLMLFSPPGQLPQSLSSPSTRLLPEPLQASLWSPSAVCGMTTPPTSPGNVPADLSHPYSKAFGTTAGGKGTPSGTPATSPPPAPPCPQDDCVHGSAAQASATAPRKEERADSSRPYLHRQSNDRGLEDPPGSKGSVTLRNLPDFLGDLASEEDSIEKDKEEAAISKELSEITTAEADPVVPRGGFDSPFYRDSLSGSQRKTHSAASGTQGSSVNPEPLHSSLDKHGPDTPKQAFTPIDPPSGSADVSPAGDRDRQTSLETSILTPSPCKIPPQRGVSFGSGQLPPYDHLFEVALPKTACHFVSKKTEELLKKVKGNPEEDCVPSTSPMEVLDRLIEQGAGAHSKELSRLSLPSKSVDWTHFGGSPPSDELRTLRDQLLLLHNQLLYERFKRQQHALRNRRLLRKVIRAAALEEHNAAMKDQLKLQEKDIQMWKVSLQKEQARYSQLQEQRDTMVTQLHSQIRQLQHDREEFYNQSQELQTKLEDCRNMIAELRVELKKANNKVCHTELLLSQVSQKLSNSESVQQQMEFLNRQLLVLGEVNELYLEQLQSKHPDTTKEVEMMKTAYRKELEKNRSHLLQQNQRLDASQRRVLELESLLAKKDHLLLEQKKYLEDVKSQASGQLLAAESRYEAQRKITRVLELEILDLYGRLEKDGRLRKLEEDRAEAAEAAEERLDCCSDGCTDSLVGHNEEASGHNGETRTSRPGGTRASCGGRVTGGSSSSSSELSTPEKPPSQRFSSRWEPALGEPSSSIPTTVGSLPSSKSFLGMKARELFRNKSESQCDEDSVTMSSSSLSETLKTELGKDSGTENKTSLSLDAPHPSSPNSDNVGQLHIMDYNETHPEHS
B2: sclerosis tuberous complex protein Tbc1d7 (protein, UniProt Q9D0K0 1-293)
chain: MTDDSQRNFRSVYYEKVGFRGVEEKKSLEILLKDDRLDIEKLCTFSQRFPLPSMYRALVWKALLGILPPHHDTHSQVMAYRKDQYHDILHALTVVRFISDATPQAEVYLRMYQLESGKLPRSPSFPLEPEDEVFLAIAKAMEEMVEDSVDCYWISRCFVKQLNNKYRDALPQLPKAFEQYLNLEDSRLLSHLKTCSAVSKLPYDLWFQRCFAGCLPESSLQRVWDKVVSGSCKILVFVAVEILLTFKIKVMALNSAEKITKFLENIPQDSSDAIVSKAIDLWHKHCGTPVHSA

target: SK3 calcium-activated small-conductance potassium channel (mouse (endogenous in midbrain)) (UniProt P58391); test: affinity purification with mass spectrometry; mouse midbrain plasma-membrane-enriched fraction solubilised in CL47a; antibody-coated magnetic beads (protein A Dynabeads for Cav1.3), 2 h at 4 °C; LC-MS/MS, iBAQ, Class A/B against 11 control IPs from knock-out mice

binding, binds:
α1 subunit of R-type voltage-dependent calcium channel Cav2.3 (from UniProt Q61290 1-2272)
sclerosis tuberous complex protein Tsc2 (from UniProt Q61037 1-1814)
SK2 channel subunit (from UniProt P58390 1-574)
B1
B2
